Laboratory results reported in patent publication US5334526.

Chains of the proteins cited; added tags and fusions are not shown. Lines headed by an entry give the natural chain unless they say otherwise; changes in a name come on top.
UniProt P23657: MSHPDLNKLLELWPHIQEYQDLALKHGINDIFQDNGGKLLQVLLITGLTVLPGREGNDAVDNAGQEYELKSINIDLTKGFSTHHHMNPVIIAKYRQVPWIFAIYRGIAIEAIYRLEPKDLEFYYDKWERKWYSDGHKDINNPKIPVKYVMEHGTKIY

Experiments:
Assay in all cases: enzyme reaction in vitro
[1] = tested on: AluI restriction endonuclease; details: REact 1, 37 C, purified native protein, only the motif is given
[2] = molecular target: PvuII restriction endonuclease (UniProt P23657); details: methylated in vivo by AluI methylase at AGCT; resistant to PvuII digestion; REact 6, 37 C; purified native protein; only the motif is given
[3] = tested on: AluI restriction endonuclease (Arthrobacter luteus (ATCC 21606)); details: very low activity; AluI-size bands of lambda DNA; REact 1, 1 mM dAMP, 5 ug/ml tRNA, 37 C; protein in a lysate after overexpression; only the motif is given

## AGCT (double strand) [AluI-methylase-modified plasmid DNA (pACYCAluMI)]
[1]; methylated in vivo by AluI methylase at AGCT, pACYCAluMI resistant to AluI digestion (clone #40 only partially protected)
  activity on this sequence: not active
[2]
  activity on this sequence: not active

## AGCT (double strand) [lambda DNA (AluI sites AGCT)]
[3]
  activity on this sequence: active

## AGCT (double strand) [plasmid DNA of clones (AluI sites)]
[1]; all 24 AluI-enriched clones cleaved, 30 min
  activity on this sequence: active

For at least one entry, the source does not settle the construct or the ends of the probe. For some of these results: Negatives hold for the conditions tested.
